# This is one part of the list.
# Legend:
# Assay in all cases: glycan array binding signal (z-score within array); higher = stronger binding
# Conditions in all cases: glycan notation: IUPAC condensed, linker removed
# [1] = target: Man(a1-3)[Man(a1-6)]Man(a1-6)[Man(a1-3)]Man
# Outline: (§1)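 Glycan array binding is given as a within-array Z-score, which can be read as non-binding when negative. The arrays, 3228 of them, came from the Consortium for Functional Glycomics database and were retained only where the protein sequence was available. Z-scores were averaged across arrays of the same protein sequence at different concentrations or buffers and across linkers.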
# [2] = target: Man(a1-3)[Man(a1-6)]Man(a1-6)[Man(a1-3)]Man(b1-4)GlcNAc(b1-4)GlcNAc
# Outline: as §1
# [3] = target: Man(a1-3)[Man(a1-6)]Man(b1-4)GlcNAc(b1-4)GlcNAc
# Outline: as §1
# [4] = target: Man(a1-3)[Man(a1-6)]Man(b1-4)GlcNAc(b1-4)[Fuc(a1-6)]GlcNAc
# Outline: as §1
# Man(a1-6)Man = target: Man(a1-6)Man
# Outline: as §1
# Man(b1-4)GlcNAc = target: Man(b1-4)GlcNAc
# Outline: as §1
# MurNAc(b1-4)GlcNAc = target: MurNAc(b1-4)GlcNAc
# Outline: as §1
# Neu5Ac(a2-3)Gal = target: Neu5Ac(a2-3)Gal
# Outline: as §1
# [5] = target: Neu5Ac(a2-3)Gal(b1-3)GalNAc
# Outline: as §1
# [6] = target: Neu5Ac(a2-3)Gal(b1-3)GalNAc(b1-3)Gal(a1-4)Gal(b1-4)Glc
# Outline: as §1
# [7] = target: Neu5Ac(a2-3)Gal(b1-3)GalNAc(b1-4)Gal(b1-4)Glc
# Outline: as §1
# [8] = target: Neu5Ac(a2-3)Gal(b1-3)GalNAc(b1-4)[Neu5Ac(a2-3)]Gal(b1-4)Glc
# Outline: as §1
# [9] = target: Neu5Ac(a2-3)Gal(b1-3)GalNAc(b1-4)[Neu5Ac(a2-8)Neu5Ac(a2-3)]Gal(b1-4)Glc
# Outline: as §1
# [10] = target: Neu5Ac(a2-3)Gal(b1-3)GalNAc6S
# Outline: as §1
# [11] = target: Neu5Ac(a2-3)Gal(b1-3)GlcNAc
# Outline: as §1
# [12] = target: Neu5Ac(a2-3)Gal(b1-3)GlcNAc(b1-2)Man
# Outline: as §1
# [13] = target: Neu5Ac(a2-3)Gal(b1-3)GlcNAc(b1-2)Man(a1-3)[GlcNAc(b1-4)][Neu5Ac(a2-3)Gal(b1-3)GlcNAc(b1-2)Man(a1-6)]Man(b1-4)GlcNAc(b1-4)GlcNAc
# Outline: as §1
# [14] = target: Neu5Ac(a2-3)Gal(b1-3)GlcNAc(b1-2)Man(a1-3)[Neu5Ac(a2-3)Gal(b1-3)GlcNAc(b1-2)Man(a1-6)]Man(b1-4)GlcNAc(b1-4)GlcNAc
# Outline: as §1
# [15] = target: Neu5Ac(a2-3)Gal(b1-3)GlcNAc(b1-2)[Neu5Ac(a2-3)Gal(b1-3)GlcNAc(b1-4)]Man(a1-6)[Neu5Ac(a2-3)Gal(b1-3)GlcNAc(b1-2)Man(a1-3)]Man(b1-4)GlcNAc(b1-4)GlcNAc
# Outline: as §1
# [16] = target: Neu5Ac(a2-3)Gal(b1-3)GlcNAc(b1-3)Gal(b1-3)GlcNAc
# Outline: as §1
# [17] = target: Neu5Ac(a2-3)Gal(b1-3)GlcNAc(b1-3)Gal(b1-4)GlcNAc
# Outline: as §1
# [18] = target: Neu5Ac(a2-3)Gal(b1-3)GlcNAc(b1-3)GalNAc
# Outline: as §1
# [19] = target: Neu5Ac(a2-3)Gal(b1-3)GlcNAc(b1-6)GalNAc
# Outline: as §1
# [20] = target: Neu5Ac(a2-3)Gal(b1-3)GlcNAc6S
# Outline: as §1
# [21] = target: Neu5Ac(a2-3)Gal(b1-3)[Fuc(a1-4)]GlcNAc
# Outline: as §1
# [22] = target: Neu5Ac(a2-3)Gal(b1-3)[Fuc(a1-4)]GlcNAc(b1-3)Gal(b1-3)[Fuc(a1-4)]GlcNAc
# Outline: as §1
# [23] = target: Neu5Ac(a2-3)Gal(b1-3)[Fuc(a1-4)]GlcNAc(b1-3)Gal(b1-4)[Fuc(a1-3)]GlcNAc
# Outline: as §1
# [24] = target: Neu5Ac(a2-3)Gal(b1-3)[GlcNAc(b1-6)]GalNAc
# Outline: as §1
# [25] = target: Neu5Ac(a2-3)Gal(b1-3)[Neu5Ac(a2-6)]GalNAc
# Outline: as §1
# [26] = target: Neu5Ac(a2-3)Gal(b1-3)[Neu5Ac(a2-6)]GlcNAc(b1-3)[Fuc(a1-3)[Gal(b1-4)]GlcNAc(b1-6)]Gal(b1-4)Glc
# Outline: as §1
# [27] = target: Neu5Ac(a2-3)Gal(b1-3)]Neu5Ac(a2-3)Gal(b1-4)]GlcNAc
# Outline: as §1
# Neu5Ac(a2-3)Gal(b1-4)Glc = target: Neu5Ac(a2-3)Gal(b1-4)Glc
# Outline: as §1
# [28] = target: Neu5Ac(a2-3)Gal(b1-4)GlcNAc
# Outline: as §1
# [29] = target: Neu5Ac(a2-3)Gal(b1-4)GlcNAc(b1-2)Man
# Outline: as §1
# [30] = target: Neu5Ac(a2-3)Gal(b1-4)GlcNAc(b1-2)Man(a1-3)[GlcNAc(b1-4)][Neu5Ac(a2-3)Gal(b1-4)GlcNAc(b1-2)Man(a1-6)]Man(b1-4)GlcNAc(b1-4)GlcNAc
# Outline: as §1
# [31] = target: Neu5Ac(a2-3)Gal(b1-4)GlcNAc(b1-2)Man(a1-3)[Neu5Ac(a2-3)Gal(b1-4)GlcNAc(b1-2)Man(a1-6)]Man(b1-4)GlcNAc(b1-4)GlcNAc
# Outline: as §1
# [32] = target: Neu5Ac(a2-3)Gal(b1-4)GlcNAc(b1-2)Man(a1-3)[Neu5Ac(a2-3)Gal(b1-4)GlcNAc(b1-2)Man(a1-6)]Man(b1-4)GlcNAc(b1-4)[Fuc(a1-6)]GlcNAc
# Outline: as §1
# [33] = target: Neu5Ac(a2-3)Gal(b1-4)GlcNAc(b1-2)Man(a1-3)[Neu5Ac(a2-6)Gal(b1-4)GlcNAc(b1-2)Man(a1-6)]Man(b1-4)GlcNAc(b1-4)GlcNAc
# Outline: as §1
binder,measurement,setting,value
Mnn9-2N3 (Aspergillus fumigatus) (protein) MAVARRMRRTNPITLLLAAILAIGFFIFVLSPSTTSASPVKAGSASSSSTSQQRREDNAAENPLSPPTKPFFKSQPVRHDGQQAPPPVVQYNLNQLSSTSTSAANGERILILTPMARFVPEYWDNVVKLTYPHELISIGFIIPKNKEGNAALAALEAAIAKTQSGPIDKRFASISILRQDFEPPLQSQDEKERHKISNQKARRESMSRARNSLLFTTLGPATAWVLWLDADIVETPPTLIQDLTAHDHPVLVPNCYQRYYNSEKKKMDVRPYDYNSWIDSSTAQSMAAEMGPDEILLEGYAEMPTYRTLMAHLADTANPNPKKVIELDGVGGTALMVKAEVHRDGAMFPAFPFYHLVETEGFAKMAKRLGYSVYGLPDYFVSRNFFFFFFFFFFG,glycan array binding signal (z-score),[1],-0.366
same,glycan array binding signal (z-score),[2],-0.772
same,glycan array binding signal (z-score),[3],1.38
same,glycan array binding signal (z-score),[4],1.45
same,glycan array binding signal (z-score),Man(a1-6)Man,-0.653
same,glycan array binding signal (z-score),Man(b1-4)GlcNAc,-0.466
same,glycan array binding signal (z-score),MurNAc(b1-4)GlcNAc,-0.221
same,glycan array binding signal (z-score),Neu5Ac(a2-3)Gal,0.285
same,glycan array binding signal (z-score),[5],0.224
same,glycan array binding signal (z-score),[6],0.073
same,glycan array binding signal (z-score),[7],0.754
same,glycan array binding signal (z-score),[8],-0.093
same,glycan array binding signal (z-score),[9],-0.461
same,glycan array binding signal (z-score),[10],2.97
same,glycan array binding signal (z-score),[11],-0.717
same,glycan array binding signal (z-score),[12],-0.11
same,glycan array binding signal (z-score),[13],-0.106
same,glycan array binding signal (z-score),[14],2.36
same,glycan array binding signal (z-score),[15],1.94
same,glycan array binding signal (z-score),[16],-0.229
same,glycan array binding signal (z-score),[17],0.065
same,glycan array binding signal (z-score),[18],-0.456
same,glycan array binding signal (z-score),[19],-0.673
same,glycan array binding signal (z-score),[20],-0.204
same,glycan array binding signal (z-score),[21],0.364
same,glycan array binding signal (z-score),[22],0.057
same,glycan array binding signal (z-score),[23],0.089
same,glycan array binding signal (z-score),[24],-0.425
same,glycan array binding signal (z-score),[25],2.13
same,glycan array binding signal (z-score),[26],-0.453
same,glycan array binding signal (z-score),[27],-0.07
same,glycan array binding signal (z-score),Neu5Ac(a2-3)Gal(b1-4)Glc,-0.071
same,glycan array binding signal (z-score),[28],0.054
same,glycan array binding signal (z-score),[29],0.051
same,glycan array binding signal (z-score),[30],-1.34
same,glycan array binding signal (z-score),[31],-0.021
same,glycan array binding signal (z-score),[32],1.24
same,glycan array binding signal (z-score),[33],0.159

# Looked up one by one from the entries so far, two records:
binder,measurement,setting,value
Mnn9-2N3 (Aspergillus fumigatus) (protein) MAVARRMRRTNPITLLLAAILAIGFFIFVLSPSTTSASPVKAGSASSSSTSQQRREDNAAENPLSPPTKPFFKSQPVRHDGQQAPPPVVQYNLNQLSSTSTSAANGERILILTPMARFVPEYWDNVVKLTYPHELISIGFIIPKNKEGNAALAALEAAIAKTQSGPIDKRFASISILRQDFEPPLQSQDEKERHKISNQKARRESMSRARNSLLFTTLGPATAWVLWLDADIVETPPTLIQDLTAHDHPVLVPNCYQRYYNSEKKKMDVRPYDYNSWIDSSTAQSMAAEMGPDEILLEGYAEMPTYRTLMAHLADTANPNPKKVIELDGVGGTALMVKAEVHRDGAMFPAFPFYHLVETEGFAKMAKRLGYSVYGLPDYFVSRNFFFFFFFFFFG,glycan array binding signal (z-score),[2],-0.772
same,glycan array binding signal (z-score),[24],-0.425

# Reference: the supplement of paper PMC8728848
